# Measured data: PubChem BioAssay AID504764 (Drosophila RNAi Screening Center, 2011)
# Test: 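Genome-wide screen for regulators of Notch-driven gene expression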 (primary screen)
# System: Drosophila Kc167 cells
# Reagent: long dsRNA against Drosophila genes
# Timing: about 5 days (4 days dsRNA, then 24 h after transfection)
# Treatment: transfection of constitutively active membrane-tethered Notch lacking the extracellular domain, read 24 h later
# Measured: 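Firefly luciferase from an E(spl)m3 reporter with active Notch, plus control-promoter and uninduced reporter wells for normalisation; unnormalised counts, duplicate wells a and b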
# Reading the numbers: induced reporter light, run 1, well a and induced reporter light, run 1, well b: higher = more light from the Notch target reporter with active Notch; control promoter light, run 1, well a and control promoter light, run 1, well b: higher = more light from the viral control promoter (cell number, transfection, viability); uninduced reporter light, run 1, well a: higher = more light from the Notch target reporter without active Notch
# Active means: 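Hit if the duplicate-averaged log2 ratio of induced to control-promoter light gives a plate-wise z beyond ±2, or induced to uninduced beyond ±1.8; weak-control or discordant-duplicate wells dropped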
# Calls: active = modifier hit (raised or lowered Notch signal); inactive = not a hit
# In all, the deposit lists about 22,000 reagents; shown is an unselected part of those with a known target gene and a result. Of all reagents, 403 (1.9%) were called active. 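Unnormalised raw counts per well; ratio z-scores behind the hit calls and whether each hit raises or lowers signal are not deposited.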 Not stated in the record: the amount of reagent.
predicted target,dsRNA,"induced reporter light, run 1, well a","induced reporter light, run 1, well b","control promoter light, run 1, well a","control promoter light, run 1, well b","uninduced reporter light, run 1, well a",activity call
CG9147,DRSC03147,1.79e5,1.75e5,1.88e5,1.84e5,8482,inactive
spdo (sanpodo),DRSC13988,67520,1.08e5,1.09e5,1.12e5,10940,inactive
CG13102,DRSC02202,1.13e5,1.27e5,74135,1.11e5,17280,inactive
CG3815,DRSC18324,2.09e5,1.85e5,2.10e5,1.99e5,14815,inactive
Bili (Band4.1 inhibitor LRP interactor),DRSC14405,1.82e5,1.64e5,3.02e5,2.44e5,15915,inactive
z (zeste),DRSC18855,9670,11565,17490,19575,6310,inactive
Gr64b (Gustatory receptor 64b),DRSC08444,1.69e5,1.88e5,2.26e5,1.98e5,8650,inactive
Pgant35A (Polypeptide N-acetylgalactosaminyltransferase 35A),DRSC03557,1.59e5,1.73e5,1.42e5,1.54e5,15255,inactive
PH4alphaNE1 (prolyl-4-hydroxylase-alpha NE1),DRSC16546,40415,47595,47690,51355,3410,inactive
BtbVII (BTB-protein-VII),DRSC08151,51565,30195,82040,91455,6040,inactive
BtbVII (BTB-protein-VII),DRSC08415,1.18e5,1.66e5,1.26e5,91485,12192,inactive
nrv2 (nervana 2),DRSC00948,30075,32945,33750,27585,1905,inactive
nrv2 (nervana 2),DRSC03383,1.56e5,1.67e5,1.77e5,1.78e5,17755,inactive
Nplp2 (Neuropeptide-like precursor 2),DRSC09824,1.08e5,1.14e5,1.76e5,1.61e5,7185,inactive
Rbf (Retinoblastoma-family protein),DRSC18704,1.80e5,1.77e5,2.27e5,2.29e5,12775,inactive
Cyt-b5 (Cytochrome b5),DRSC07392,1.96e5,2.03e5,1.80e5,1.59e5,17265,inactive
CG31419,DRSC15771,1.80e5,1.81e5,2.11e5,2.49e5,19525,active
HP5 (Heterochromatin protein 5),DRSC19773,2.18e5,1.90e5,2.64e5,2.30e5,12845,inactive
mthl12 (methuselah-like 12),DRSC12964,1.21e5,1.63e5,2.33e5,1.92e5,10965,inactive
AttC (Attacin-C),DRSC06886,1.10e5,96560,1.23e5,1.21e5,8675,inactive
obst-F (obstructor-F),DRSC10805,1.23e5,1.43e5,1.16e5,1.25e5,7980,inactive
CG7156,DRSC16207,1.52e5,1.68e5,2.16e5,2.27e5,15980,inactive
CG13978,DRSC14720,1.10e5,97720,1.53e5,1.52e5,12525,inactive
CG4022,DRSC10395,1.67e5,1.33e5,1.63e5,1.29e5,8192,inactive
CG11035,DRSC14287,1.23e5,1.18e5,80300,77120,9620,inactive
Rbsn-5 (Rabenosyn-5),DRSC03094,87280,83810,84070,82255,5180,inactive
ghi (ghiberti),DRSC08985,2.40e5,2.30e5,2.27e5,2.37e5,15650,inactive
Prosbeta2R2 (Proteasome beta2 subunit-related 2),DRSC12193,71055,96600,83905,91515,7200,inactive
Kyat (Kynurenine aminotransferase),DRSC16147,1.09e5,1.14e5,1.08e5,81155,13405,inactive
GXIVsPLA2,DRSC10243,1.12e5,1.47e5,71075,80710,9130,inactive
Naa20A (N(alpha)-acetyltransferase 20 A),DRSC19579,1.34e5,1.29e5,1.05e5,84940,10495,inactive
Dscam2 (Down syndrome cell adhesion molecule 2),DRSC08869,1.83e5,1.70e5,1.84e5,1.59e5,12650,inactive
Dscam2 (Down syndrome cell adhesion molecule 2),DRSC10198,1.99e5,2.20e5,2.08e5,1.83e5,7070,inactive
Dscam2 (Down syndrome cell adhesion molecule 2),DRSC11018,1.78e5,1.35e5,1.75e5,1.53e5,6892,inactive
Dscam2 (Down syndrome cell adhesion molecule 2),DRSC11019,1.22e5,1.72e5,1.59e5,1.30e5,3010,inactive
Cda9 (Chitin deacetylase-like 9),DRSC06593,1.23e5,1.03e5,1.20e5,1.20e5,10550,inactive
CG10508,DRSC11612,1.47e5,1.27e5,1.01e5,1.21e5,8620,inactive
CG10508,DRSC11613,1.16e5,79160,87355,66535,7605,inactive
dia (diaphanous),DRSC03519,36965,29080,30170,23640,2800,inactive
CG34238,DRSC09040,1.99e5,1.86e5,2.10e5,2.24e5,12495,inactive
CG17193,DRSC15187,1.99e5,1.76e5,2.07e5,2.05e5,14228,inactive
CG11294,DRSC17777,71150,72745,1.13e5,1.04e5,7965,inactive
metro (menage a trois),DRSC06341,1.90e5,2.09e5,1.96e5,2.02e5,18595,inactive
metro (menage a trois),DRSC06725,1.18e5,1.34e5,1.74e5,1.87e5,14580,inactive
CG15422,DRSC00436,1.82e5,1.41e5,1.40e5,1.48e5,9525,inactive
CG12438,DRSC02167,93165,1.49e5,95275,1.32e5,20630,inactive
Mgat2,DRSC16347,1.56e5,1.74e5,1.93e5,1.96e5,10550,inactive
CG15728,DRSC19694,1.20e5,1.25e5,2.17e5,1.80e5,9405,inactive
CG6083,DRSC10580,1.44e5,1.32e5,2.43e5,1.87e5,7445,inactive
djl (don juan like),DRSC12578,65800,91565,78420,57320,7075,inactive
CG14490,DRSC06461,76995,1.04e5,1.15e5,1.16e5,6885,inactive
CG42382,DRSC07671,2.10e5,1.92e5,2.51e5,1.91e5,16395,inactive
Actbeta (Activin-beta),DRSC17185,69935,77185,81095,87165,4855,inactive
Actbeta (Activin-beta),DRSC17217,1.26e5,1.26e5,2.02e5,1.95e5,8465,inactive
CG11362,DRSC04106,1.30e5,1.30e5,1.35e5,1.24e5,8665,inactive
CG11362,DRSC22032,,,,,,inactive
Srr (Serine racemase),DRSC16382,98405,1.02e5,1.43e5,90475,6845,inactive
l(3)S110416 (retired record),DRSC17094,1.48e5,1.80e5,2.02e5,2.01e5,13615,inactive
eas (easily shocked),DRSC20329,64440,61035,76840,47565,9678,inactive
CG16749,DRSC15146,78635,1.06e5,1.45e5,1.17e5,5395,inactive
RpS18 (Ribosomal protein S18),DRSC07540,12870,8700,11735,13670,1885,inactive
CG3014,DRSC15458,73080,71330,70775,64250,5825,inactive
Fib (Fibrillarin),DRSC04614,1.11e5,1.07e5,93520,92600,6630,inactive
mop (myopic),DRSC11065,1.15e5,1.16e5,90090,1.12e5,10182,inactive

Called active, among the entries above:
predicted target,dsRNA,"induced reporter light, run 1, well a","induced reporter light, run 1, well b","control promoter light, run 1, well a","control promoter light, run 1, well b","uninduced reporter light, run 1, well a",activity call
CG31419,DRSC15771,1.80e5,1.81e5,2.11e5,2.49e5,19525,active
